Results on four substances are retold here after article PMC11615823.

The chains behind the UniProt entries cited, without tags or fusion partners. Residues count along the entry.
UniProt P55036: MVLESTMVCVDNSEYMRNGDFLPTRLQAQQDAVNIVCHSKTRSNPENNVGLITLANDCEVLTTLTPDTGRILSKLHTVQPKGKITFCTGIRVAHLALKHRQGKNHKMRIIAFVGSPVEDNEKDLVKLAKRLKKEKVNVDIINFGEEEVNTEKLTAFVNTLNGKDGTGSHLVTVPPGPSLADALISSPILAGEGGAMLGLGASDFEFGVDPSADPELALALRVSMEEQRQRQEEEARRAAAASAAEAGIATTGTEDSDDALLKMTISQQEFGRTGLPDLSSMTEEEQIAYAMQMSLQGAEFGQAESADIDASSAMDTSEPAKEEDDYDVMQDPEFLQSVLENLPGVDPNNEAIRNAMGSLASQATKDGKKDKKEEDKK
UniProt P11362, residues 22-822: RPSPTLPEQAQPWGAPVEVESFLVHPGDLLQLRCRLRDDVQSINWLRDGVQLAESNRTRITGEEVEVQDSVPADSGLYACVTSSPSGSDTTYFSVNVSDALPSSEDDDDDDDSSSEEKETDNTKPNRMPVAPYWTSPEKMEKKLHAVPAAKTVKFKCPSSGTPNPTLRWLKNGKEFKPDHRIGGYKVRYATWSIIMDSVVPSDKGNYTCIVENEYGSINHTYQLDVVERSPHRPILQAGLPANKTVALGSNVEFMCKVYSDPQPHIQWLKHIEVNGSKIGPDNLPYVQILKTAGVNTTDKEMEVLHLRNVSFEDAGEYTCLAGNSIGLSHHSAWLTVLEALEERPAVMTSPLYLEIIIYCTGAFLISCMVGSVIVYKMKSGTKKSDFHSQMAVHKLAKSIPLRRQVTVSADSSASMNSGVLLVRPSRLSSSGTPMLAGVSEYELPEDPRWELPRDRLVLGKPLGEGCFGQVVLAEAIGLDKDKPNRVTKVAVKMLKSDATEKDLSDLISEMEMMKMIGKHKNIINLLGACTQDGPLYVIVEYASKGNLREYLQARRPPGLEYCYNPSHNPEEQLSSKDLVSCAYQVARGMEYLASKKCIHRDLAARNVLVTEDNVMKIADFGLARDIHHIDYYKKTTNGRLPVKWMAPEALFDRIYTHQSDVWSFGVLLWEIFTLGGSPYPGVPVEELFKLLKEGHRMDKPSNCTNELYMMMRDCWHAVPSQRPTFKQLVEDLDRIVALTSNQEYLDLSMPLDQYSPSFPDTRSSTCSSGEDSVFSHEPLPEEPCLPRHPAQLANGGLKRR
UniProt P35916, residues 25-1363: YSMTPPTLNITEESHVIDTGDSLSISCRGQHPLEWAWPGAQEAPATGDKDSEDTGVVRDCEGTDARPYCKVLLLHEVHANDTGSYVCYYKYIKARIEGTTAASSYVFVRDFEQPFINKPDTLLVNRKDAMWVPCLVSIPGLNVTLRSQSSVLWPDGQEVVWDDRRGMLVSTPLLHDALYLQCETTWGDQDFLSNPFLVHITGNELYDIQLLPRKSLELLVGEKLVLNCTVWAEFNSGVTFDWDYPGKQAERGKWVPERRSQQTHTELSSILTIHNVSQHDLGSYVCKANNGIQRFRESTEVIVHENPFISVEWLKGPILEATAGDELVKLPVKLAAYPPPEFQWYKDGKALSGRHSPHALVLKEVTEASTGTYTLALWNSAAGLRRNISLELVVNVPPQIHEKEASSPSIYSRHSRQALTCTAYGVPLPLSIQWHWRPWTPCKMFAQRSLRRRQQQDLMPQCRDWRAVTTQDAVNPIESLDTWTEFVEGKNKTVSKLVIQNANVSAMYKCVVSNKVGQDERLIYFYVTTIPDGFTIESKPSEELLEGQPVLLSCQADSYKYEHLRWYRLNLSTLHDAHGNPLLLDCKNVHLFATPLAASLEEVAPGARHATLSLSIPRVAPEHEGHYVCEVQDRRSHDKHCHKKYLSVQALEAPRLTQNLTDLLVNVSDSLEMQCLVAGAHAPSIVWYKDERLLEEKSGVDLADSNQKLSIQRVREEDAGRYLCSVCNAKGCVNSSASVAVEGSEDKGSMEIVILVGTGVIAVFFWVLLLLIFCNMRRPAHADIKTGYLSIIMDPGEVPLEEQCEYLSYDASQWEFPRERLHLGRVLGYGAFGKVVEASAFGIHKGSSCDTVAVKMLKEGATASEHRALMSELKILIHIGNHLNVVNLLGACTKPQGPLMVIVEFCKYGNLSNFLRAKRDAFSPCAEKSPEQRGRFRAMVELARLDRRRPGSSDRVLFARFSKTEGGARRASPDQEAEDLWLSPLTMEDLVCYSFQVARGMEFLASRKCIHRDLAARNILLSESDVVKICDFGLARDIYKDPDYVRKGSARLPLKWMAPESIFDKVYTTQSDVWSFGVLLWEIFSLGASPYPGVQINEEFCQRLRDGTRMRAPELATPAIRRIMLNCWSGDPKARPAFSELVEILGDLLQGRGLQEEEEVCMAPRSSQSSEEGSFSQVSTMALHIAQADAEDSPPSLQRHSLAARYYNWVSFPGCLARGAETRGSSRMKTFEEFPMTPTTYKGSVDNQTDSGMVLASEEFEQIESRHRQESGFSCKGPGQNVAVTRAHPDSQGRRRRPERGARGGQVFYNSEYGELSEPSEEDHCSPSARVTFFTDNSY

One assay has as its target endogenous MCB1 (UniProt P55036). Description: co-IP; co-IP of endogenous proteins; cells and precipitating antibody not stated in the text (Figure S8G).
In assay [1] the target is purified GST-MCB1 (human) (UniProt P55036). In words: pull-down; GST bead pull-down of purified GST-MCB1 with recombinant p53, FGFR1 or VEGFR3; both purified.

No constants are given. Whether binding was seen depends on the method and setting. For some of these results: Binding seen in cells or lysates may run through a third protein. Some entries that bind do so weakly or less than the wild type.

For “fibroblast growth factor receptor 1 (FGFR1), endogenous (from UniProt P11362 22-822)”, the binding entry with endogenous MCB1 is on record as “binds”.
As for “recombinant FGFR1 (from UniProt P11362 22-822) (receptor)”, the binding entry in assay [1] is reported as “binds”.
Still for that read-out and setting: with “recombinant VEGFR3 (from UniProt P35916 25-1363) (receptor)” the entry was “binds”.
“vascular endothelial growth factor receptor 3 (VEGFR3), endogenous (from UniProt P35916 25-1363)”: in the assay with endogenous MCB1, the binding result is “binds”.
